A short description of this test: PubChem AID 2452. To be noted: H4 cells, PrP 5'UTR luciferase reporter translation; at 1.2 µM (top of the series).

These results are taken from PubChem BioAssay AID2452 (Broad Institute, 2010).

This is one part of the list. Potency and affinity values are given separately. Where no call is shown, the source marks the result inconclusive.

For `Cc1ccc2nc3sc(C(=O)N4CCOCC4)c(N)c3cc2c1`, the activity change, negative = inhibition was -29.6%.
